Experimental data: PubChem BioAssay AID1508597 (Cure First, 2020)

Purpose: 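Survival screen with siRNA in ovarian cancer cells derived from patients, with or without rucaparib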 (primary screen)
Cell system: human ovarian carcinoma lines grown from tumours: OCI-P5x (papillary serous) and OCI-C5x (clear cell)
Reagents: siRNA pool against human genes, 1.25 pmol siRNA per well
Time to read-out: 72 h or 96 h, depending on the cell culture
Treatment: rucaparib 20 µM (about IC30) or vehicle, present until read-out
Detection: 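ATP luminescence measured at 72 or 96 h according to the culture, then normalised and expressed as percent viability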
Reading the numbers: viability, normalised: higher = more viable cells remaining
Rule for the call: 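a well counts as a hit if its normalised viability is under 80 percent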
Calls: active = viability under 80%; inactive = viability 80% or more
The whole screen tested about 2,100 reagents; shown is an unselected part. 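Calls flag viability under 80% in either arm, not effects specific to rucaparib; the reference for percent is not stated.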 Unmarked entries are inactive. No sequences are given here. Not stated in the record: the 100% reference.

SMPD2 (GeneID 6610) [SID405526719], rucaparib or vehicle Rucaparib, cell line OCI-C5x (clear cell), technical replicate 1
- viability, normalised (%): 83.7

SMPD2 (GeneID 6610) [SID405526719], rucaparib or vehicle Rucaparib, cell line OCI-C5x (clear cell), technical replicate 2
- viability, normalised (%): 52.4 (active)

SMPD2 (GeneID 6610) [SID405526719], rucaparib or vehicle Rucaparib, cell line OCI-C5x (clear cell), technical replicate 3
- viability, normalised (%): 54 (active)

SMPD2 (GeneID 6610) [SID405526719], rucaparib or vehicle Rucaparib, cell line OCI-P5x (serous), technical replicate 1
- viability, normalised (%): 87.9

SMPD2 (GeneID 6610) [SID405526719], rucaparib or vehicle Rucaparib, cell line OCI-P5x (serous), technical replicate 2
- viability, normalised (%): 86.2

SMPD2 (GeneID 6610) [SID405526719], rucaparib or vehicle Rucaparib, cell line OCI-P5x (serous), technical replicate 3
- viability, normalised (%): 86.7

SMPD2 (GeneID 6610) [SID405526719], rucaparib or vehicle Vehicle, cell line OCI-C5x (clear cell), technical replicate 1
- viability, normalised (%): 82

SMPD2 (GeneID 6610) [SID405526719], rucaparib or vehicle Vehicle, cell line OCI-C5x (clear cell), technical replicate 2
- viability, normalised (%): 51.2 (active)

SMPD2 (GeneID 6610) [SID405526719], rucaparib or vehicle Vehicle, cell line OCI-C5x (clear cell), technical replicate 3
- viability, normalised (%): 57.4 (active)

SMPD2 (GeneID 6610) [SID405526719], rucaparib or vehicle Vehicle, cell line OCI-P5x (serous), technical replicate 1
- viability, normalised (%): 95.1

SMPD2 (GeneID 6610) [SID405526719], rucaparib or vehicle Vehicle, cell line OCI-P5x (serous), technical replicate 2
- viability, normalised (%): 80.5

SMPD2 (GeneID 6610) [SID405526719], rucaparib or vehicle Vehicle, cell line OCI-P5x (serous), technical replicate 3
- viability, normalised (%): 56.2 (active)

KDM1B (GeneID 221656) [SID405526928], rucaparib or vehicle Rucaparib, cell line OCI-C5x (clear cell), technical replicate 1
- viability, normalised (%): 55.1 (active)

KDM1B (GeneID 221656) [SID405526928], rucaparib or vehicle Rucaparib, cell line OCI-C5x (clear cell), technical replicate 2
- viability, normalised (%): 42.6 (active)

KDM1B (GeneID 221656) [SID405526928], rucaparib or vehicle Rucaparib, cell line OCI-C5x (clear cell), technical replicate 3
- viability, normalised (%): 48.6 (active)

KDM1B (GeneID 221656) [SID405526928], rucaparib or vehicle Rucaparib, cell line OCI-P5x (serous), technical replicate 1
- viability, normalised (%): 77.5 (active)

KDM1B (GeneID 221656) [SID405526928], rucaparib or vehicle Rucaparib, cell line OCI-P5x (serous), technical replicate 2
- viability, normalised (%): 62.3 (active)

KDM1B (GeneID 221656) [SID405526928], rucaparib or vehicle Rucaparib, cell line OCI-P5x (serous), technical replicate 3
- viability, normalised (%): 66 (active)

KDM1B (GeneID 221656) [SID405526928], rucaparib or vehicle Vehicle, cell line OCI-C5x (clear cell), technical replicate 1
- viability, normalised (%): 63.3 (active)

KDM1B (GeneID 221656) [SID405526928], rucaparib or vehicle Vehicle, cell line OCI-C5x (clear cell), technical replicate 2
- viability, normalised (%): 70.9 (active)

KDM1B (GeneID 221656) [SID405526928], rucaparib or vehicle Vehicle, cell line OCI-C5x (clear cell), technical replicate 3
- viability, normalised (%): 71.4 (active)

KDM1B (GeneID 221656) [SID405526928], rucaparib or vehicle Vehicle, cell line OCI-P5x (serous), technical replicate 1
- viability, normalised (%): 69.6 (active)

KDM1B (GeneID 221656) [SID405526928], rucaparib or vehicle Vehicle, cell line OCI-P5x (serous), technical replicate 2
- viability, normalised (%): 72.3 (active)

KDM1B (GeneID 221656) [SID405526928], rucaparib or vehicle Vehicle, cell line OCI-P5x (serous), technical replicate 3
- viability, normalised (%): 62 (active)

A few values from the list.
Value for KDM1B (GeneID 221656) [SID405526928], rucaparib or vehicle Rucaparib, cell line OCI-C5x (clear cell), technical replicate 3 under “viability, normalised (%)”: 48.6 (active)
For “viability, normalised (%)”, SMPD2 (GeneID 6610) [SID405526719], rucaparib or vehicle Vehicle, cell line OCI-P5x (serous), technical replicate 2 is entered as 80.5
SMPD2 (GeneID 6610) [SID405526719], rucaparib or vehicle Vehicle, cell line OCI-P5x (serous), technical replicate 1, viability, normalised (%): 95.1
Under “viability, normalised (%)”, KDM1B (GeneID 221656) [SID405526928], rucaparib or vehicle Vehicle, cell line OCI-P5x (serous), technical replicate 2 reads 72.3 (active)

Continued.
TIPARP (GeneID 25976) [SID405526562], rucaparib or vehicle Rucaparib, cell line OCI-C5x (clear cell), technical replicate 1
- viability, normalised (%): 41.8 (active)

TIPARP (GeneID 25976) [SID405526562], rucaparib or vehicle Rucaparib, cell line OCI-C5x (clear cell), technical replicate 2
- viability, normalised (%): 37.8 (active)

TIPARP (GeneID 25976) [SID405526562], rucaparib or vehicle Rucaparib, cell line OCI-C5x (clear cell), technical replicate 3
- viability, normalised (%): 32.7 (active)

TIPARP (GeneID 25976) [SID405526562], rucaparib or vehicle Rucaparib, cell line OCI-P5x (serous), technical replicate 1
- viability, normalised (%): 60.4 (active)

TIPARP (GeneID 25976) [SID405526562], rucaparib or vehicle Rucaparib, cell line OCI-P5x (serous), technical replicate 2
- viability, normalised (%): 56.4 (active)

TIPARP (GeneID 25976) [SID405526562], rucaparib or vehicle Rucaparib, cell line OCI-P5x (serous), technical replicate 3
- viability, normalised (%): 61.5 (active)

TIPARP (GeneID 25976) [SID405526562], rucaparib or vehicle Vehicle, cell line OCI-C5x (clear cell), technical replicate 1
- viability, normalised (%): 27.9 (active)

TIPARP (GeneID 25976) [SID405526562], rucaparib or vehicle Vehicle, cell line OCI-C5x (clear cell), technical replicate 2
- viability, normalised (%): 30.9 (active)

TIPARP (GeneID 25976) [SID405526562], rucaparib or vehicle Vehicle, cell line OCI-C5x (clear cell), technical replicate 3
- viability, normalised (%): 44.6 (active)

TIPARP (GeneID 25976) [SID405526562], rucaparib or vehicle Vehicle, cell line OCI-P5x (serous), technical replicate 1
- viability, normalised (%): 57.2 (active)

TIPARP (GeneID 25976) [SID405526562], rucaparib or vehicle Vehicle, cell line OCI-P5x (serous), technical replicate 2
- viability, normalised (%): 43.2 (active)

TIPARP (GeneID 25976) [SID405526562], rucaparib or vehicle Vehicle, cell line OCI-P5x (serous), technical replicate 3
- viability, normalised (%): 43.3 (active)

AIFM2 (GeneID 84883) [SID405526448], rucaparib or vehicle Rucaparib, cell line OCI-C5x (clear cell), technical replicate 1
- viability, normalised (%): 50.7 (active)

AIFM2 (GeneID 84883) [SID405526448], rucaparib or vehicle Rucaparib, cell line OCI-C5x (clear cell), technical replicate 2
- viability, normalised (%): 55.4 (active)

AIFM2 (GeneID 84883) [SID405526448], rucaparib or vehicle Rucaparib, cell line OCI-C5x (clear cell), technical replicate 3
- viability, normalised (%): 51.4 (active)

AIFM2 (GeneID 84883) [SID405526448], rucaparib or vehicle Rucaparib, cell line OCI-P5x (serous), technical replicate 1
- viability, normalised (%): 72.7 (active)

AIFM2 (GeneID 84883) [SID405526448], rucaparib or vehicle Rucaparib, cell line OCI-P5x (serous), technical replicate 2
- viability, normalised (%): 72 (active)

AIFM2 (GeneID 84883) [SID405526448], rucaparib or vehicle Rucaparib, cell line OCI-P5x (serous), technical replicate 3
- viability, normalised (%): 77.5 (active)

AIFM2 (GeneID 84883) [SID405526448], rucaparib or vehicle Vehicle, cell line OCI-C5x (clear cell), technical replicate 1
- viability, normalised (%): 43.5 (active)

AIFM2 (GeneID 84883) [SID405526448], rucaparib or vehicle Vehicle, cell line OCI-C5x (clear cell), technical replicate 2
- viability, normalised (%): 37.9 (active)

AIFM2 (GeneID 84883) [SID405526448], rucaparib or vehicle Vehicle, cell line OCI-C5x (clear cell), technical replicate 3
- viability, normalised (%): 34 (active)

AIFM2 (GeneID 84883) [SID405526448], rucaparib or vehicle Vehicle, cell line OCI-P5x (serous), technical replicate 1
- viability, normalised (%): 76.7 (active)

AIFM2 (GeneID 84883) [SID405526448], rucaparib or vehicle Vehicle, cell line OCI-P5x (serous), technical replicate 2
- viability, normalised (%): 68.4 (active)

AIFM2 (GeneID 84883) [SID405526448], rucaparib or vehicle Vehicle, cell line OCI-P5x (serous), technical replicate 3
- viability, normalised (%): 72.7 (active)
